Measured values: paper doi:10.1101/2025.01.15.633165
These are yes or no findings as the source states them, for the method shown. For some assays here: A result given as binding can be weak or reduced; the word gives no strength.

Amino acid sequences for entries named in this document (tags omitted). A change or cut given only in a name is not applied to a line headed by its entry.
UniProt F4JHB3: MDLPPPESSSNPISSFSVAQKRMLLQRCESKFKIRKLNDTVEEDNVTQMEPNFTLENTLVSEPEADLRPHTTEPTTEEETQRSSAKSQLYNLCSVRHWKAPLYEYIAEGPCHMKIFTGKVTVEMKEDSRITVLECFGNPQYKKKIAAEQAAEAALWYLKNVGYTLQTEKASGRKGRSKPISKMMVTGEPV
UniProt Q8H1D4: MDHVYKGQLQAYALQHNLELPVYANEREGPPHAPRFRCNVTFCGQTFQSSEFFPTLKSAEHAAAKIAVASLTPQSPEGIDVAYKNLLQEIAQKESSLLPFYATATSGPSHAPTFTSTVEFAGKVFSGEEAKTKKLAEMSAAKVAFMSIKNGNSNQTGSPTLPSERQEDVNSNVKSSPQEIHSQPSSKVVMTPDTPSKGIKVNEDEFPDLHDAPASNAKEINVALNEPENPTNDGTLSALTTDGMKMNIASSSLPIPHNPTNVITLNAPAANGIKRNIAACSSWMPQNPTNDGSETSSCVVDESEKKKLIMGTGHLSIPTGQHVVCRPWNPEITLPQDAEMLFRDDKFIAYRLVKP

Assays:
[1] = biological target: DRB7.2 (M1-V190) (A. thaliana) (UniProt F4JHB3); test: NMR titration
[2] = biological target: DRB7.2 (M1-V190) (A. thaliana) (UniProt F4JHB3); test: ITC

## DRB4 (1-355) (from UniProt Q8H1D4)
[1]
  binding: binds

## DRB4D1D2 (1-153) (from UniProt Q8H1D4) (domain or fragment)
[2]
  binding: no binding
